Measurements reported in PubChem BioAssay AID504791 (Drosophila RNAi Screening Center, 2011)
The screen tested about 23,000 reagents; shown is a random part of those that have a named target and a result. Of all reagents, 199 (0.86%) were called active. 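Plate-scaled ratios behind the calls are not deposited; printed light signals are raw; many rows marked increased or decreased are still called inactive.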 Names joined by + are all predicted targets of the reagent. The record does not give: the direction of the score.

- Test: 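Genes whose knock-down strengthens or weakens small-RNA reporter silencing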 (primary screen)
- System: Drosophila S2-derived reporter cells
- Reagents: long dsRNA against Drosophila genes, about 150-250 ng dsRNA per well (siRNA assay); about 80-120 ng (miRNA assay)
- Duration: about 5 days (siRNA assay); about 4 days (miRNA assay)
- Conditions: copper sulfate induction of reporters: 25 µM (siRNA assay); 200 mM stated (miRNA assay), 1-2 days before reading
- Measured: 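Dual luciferase assay: Renilla to firefly signal ratio in each well, scaled to the mean ratio of its plate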
- Hit rule: 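a well was a first-pass pick when its plate-scaled ratio rose above 1.5 (siRNA assay) or 1.6 (miRNA assay), or dropped below 0.6; a gene counted only if two separate dsRNAs agreed on retest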

gene	amplicon	stable siRNA reporter change	miRNA reporter change	stable assay Renilla, run 1 (luminescence)	stable assay firefly, run 1 (luminescence)	activity call
Aps	DRSC10629			4740	2.64e5	inactive
Alms1a	DRSC18558			5715	2.85e5	inactive
CG7668	DRSC10901			8182	3.33e5	inactive
Msp300	DRSC00854			5207	4.01e5	inactive
Msp300	DRSC00856			5587	4.26e5	inactive
Msp300	DRSC00857			6490	4.90e5	inactive
Msp300	DRSC00858			6311	4.70e5	inactive
Msp300	DRSC02360			8752	3.66e5	inactive
Msp300	DRSC03369			11101	3.59e5	inactive
Msp300	DRSC03370			7150	3.90e5	inactive
Pi3K21B	DRSC00771			14529	8.58e5	inactive
Dad1	DRSC02263			6675	4.89e5	inactive
CG13398	DRSC02268			7182	3.37e5	inactive
ergic53	DRSC11389			7512	4.60e5	inactive
CG9016	DRSC03127			7450	3.43e5	inactive
trbl	DRSC11901			7386	3.78e5	inactive
nyo	DRSC15029	reporter ratio lowered past the hit cutoff		5622	6.41e5	inactive
nyo	DRSC15030			6707	5.51e5	inactive
Tom20	DRSC10899			7714	2.92e5	inactive
CHKov1	DRSC01566			4991	3.68e5	inactive
CHKov1	DRSC01696			5348	2.99e5	inactive
CHKov1	DRSC14258			7686	3.16e5	inactive
CHKov1	DRSC20937			3984	3.09e5	inactive
Suv3	DRSC12335			8411	4.09e5	inactive
CG34297	DRSC12410			6659	4.21e5	inactive
CG15771	DRSC18077			5067	3.17e5	inactive
CG9801	DRSC16568			7450	4.39e5	inactive
SoxN	DRSC03440			5363	3.65e5	inactive
SoxN	DRSC21779			6340	4.08e5	inactive
Nepl4	DRSC03239			56019	4.53e5	inactive
Usp39	DRSC20032			9267	3.83e5	inactive
CG31221	DRSC14335			6428	3.36e5	inactive
CG31221	DRSC16217			5994	2.62e5	inactive
Syp	DRSC13444			4687	5.04e5	inactive
Syp	DRSC15286			9064	4.20e5	inactive
CG8993	DRSC08616			6339	4.22e5	inactive
CG6908	DRSC16131			7031	3.53e5	inactive
CG17404	DRSC15234			6082	4.87e5	inactive
CG13833	DRSC14683			8205	4.89e5	inactive
btl	DRSC11331			7783	5.21e5	inactive
CG42534	DRSC14722			5994	3.04e5	inactive
CG42534	DRSC14759			5116	2.37e5	inactive
CG42534	DRSC16072			6315	3.23e5	inactive
CG42534	DRSC23131			4695	3.47e5	inactive
CG42534	DRSC23246			5231	2.99e5	inactive
Adgf-B	DRSC10568			7627	4.08e5	inactive
CG7149	DRSC03016			14838	5.07e5	inactive
CG14861	DRSC14984			7866	4.82e5	inactive
CG4291	DRSC00650			31010	1.03e5	inactive
Tsp42Ea	DRSC04982			6452	4.98e5	inactive
Tsp42Ea	DRSC06792			6564	4.57e5	inactive
CG32152	DRSC22906			3999	3.81e5	inactive
BBS5	DRSC12168			7727	3.53e5	inactive
Cpsf100	DRSC14146			7334	6.26e5	inactive
Cpsf100	DRSC28396		reporter ratio lowered past the hit cutoff			inactive
CG30419	DRSC04208			4139	3.53e5	inactive
CG30419	DRSC04209			3975	3.06e5	inactive
CG30419	DRSC22519			4503	6.09e5	inactive
ush	DRSC00843		reporter ratio raised past the hit cutoff	11522	4.02e5	active
CG14323	DRSC14802			7100	5.60e5	inactive
CG11159	DRSC06050			4887	3.11e5	inactive
CG16903	DRSC18561			7963	3.78e5	inactive
CG5815	DRSC14135			6563	4.11e5	inactive
CG7747	DRSC07038			8135	2.93e5	inactive
CG31909	DRSC22180			9183	6.11e5	inactive
Drsl4	DRSC08034			5434	4.33e5	inactive
Akr1B	DRSC10581			9083	4.95e5	inactive
euc	DRSC14492			7823	4.42e5	inactive
mahe	DRSC17755			8322	4.28e5	inactive
l(2)34Fd	DRSC01911			6782	1.52e6	inactive
CG31278	DRSC16051			6744	4.22e5	inactive
Rich	DRSC11607			7974	3.02e5	inactive
ab	DRSC03478	reporter ratio raised past the hit cutoff		6307	1.74e5	inactive
ab	DRSC23179			2828	3.31e5	inactive
Pebp1	DRSC15354			6874	3.76e5	inactive
Ipp	DRSC16718			6439	3.46e5	inactive
CG34376	DRSC14695			5723	3.81e5	inactive
CG34376	DRSC14696			8339	4.05e5	inactive
CG34376	DRSC14701			8663	4.37e5	inactive
BG642163	DRSC00342			6690	3.31e5	inactive
BG642163	DRSC00343			6542	3.22e5	inactive
RNaseX25	DRSC11259			7371	3.24e5	inactive
bbx + waw	DRSC20575			7440	4.24e5	inactive
bbx + waw	DRSC20589			6243	4.19e5	inactive

Copied from the listing for reference:
gene	amplicon	stable siRNA reporter change	miRNA reporter change	stable assay Renilla, run 1 (luminescence)	stable assay firefly, run 1 (luminescence)	activity call
CG7149	DRSC03016			14838	5.07e5	inactive
CG14861	DRSC14984			7866	4.82e5	inactive
CG4291	DRSC00650			31010	1.03e5	inactive
Tsp42Ea	DRSC04982			6452	4.98e5	inactive
Tsp42Ea	DRSC06792			6564	4.57e5	inactive
